# Results as given in the M2OR odorant receptor database.
# The chains behind the UniProt entries cited, without tags or fusion partners. Where a name states a change or a piece, a line headed by the entry shows the natural chain unless it says otherwise.
# UniProt B2RN74: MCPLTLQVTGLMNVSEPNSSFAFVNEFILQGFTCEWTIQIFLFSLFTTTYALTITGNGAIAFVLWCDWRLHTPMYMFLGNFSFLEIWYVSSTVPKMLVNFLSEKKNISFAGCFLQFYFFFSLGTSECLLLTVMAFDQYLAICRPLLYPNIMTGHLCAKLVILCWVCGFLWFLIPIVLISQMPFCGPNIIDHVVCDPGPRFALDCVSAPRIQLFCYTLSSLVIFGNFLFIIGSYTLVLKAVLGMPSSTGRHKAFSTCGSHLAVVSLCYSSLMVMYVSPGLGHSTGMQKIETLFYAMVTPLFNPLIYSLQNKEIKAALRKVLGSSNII
# The entries are a selection whose mix differs from that of the whole data set. Calls are pooled over several reports, among them a noisy single-well screen. This is one part of the list.
# Experiments:
# Details in all cases: stereoisomer not certain
# OR10K1 (Homo sapiens) = target: T1, OR10K1 (Homo sapiens) (UniProt Q8NGX5)
# T1 sequence (whole entry): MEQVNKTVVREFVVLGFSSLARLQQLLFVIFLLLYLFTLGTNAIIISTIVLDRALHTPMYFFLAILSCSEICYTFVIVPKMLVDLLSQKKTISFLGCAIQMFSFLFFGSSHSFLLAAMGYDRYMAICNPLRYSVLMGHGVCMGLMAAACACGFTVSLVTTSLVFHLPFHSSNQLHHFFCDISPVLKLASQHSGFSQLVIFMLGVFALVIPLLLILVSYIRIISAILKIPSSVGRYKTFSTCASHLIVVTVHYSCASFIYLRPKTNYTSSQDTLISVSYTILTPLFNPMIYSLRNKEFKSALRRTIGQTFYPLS
# Summary of the method: (§1)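 Whether a receptor–molecule pair is responsive (active) rests on the original authors' judgment that its measured signal was statistically different from baseline. Pairs without that judgment are non-responsive (inactive). Sources used varied assay methods, commonly transient luciferase assays in mammalian cell lines.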
# OR10K2 (Homo sapiens) = target: T2, OR10K2 (Homo sapiens) (UniProt Q6IF99)
# T2 sequence (whole entry): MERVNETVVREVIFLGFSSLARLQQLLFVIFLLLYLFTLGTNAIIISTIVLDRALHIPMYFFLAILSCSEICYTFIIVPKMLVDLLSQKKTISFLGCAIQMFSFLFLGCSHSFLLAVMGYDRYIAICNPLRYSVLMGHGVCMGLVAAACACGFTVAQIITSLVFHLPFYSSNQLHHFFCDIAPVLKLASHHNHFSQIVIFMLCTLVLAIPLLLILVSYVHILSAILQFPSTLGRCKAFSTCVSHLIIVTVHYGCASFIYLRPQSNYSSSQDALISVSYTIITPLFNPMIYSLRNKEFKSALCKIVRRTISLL
# Summary of the method: as §1
# OR10T2 (Homo sapiens) = target: T3, OR10T2 (Homo sapiens) (UniProt Q8NGX3)
# T3 sequence (whole entry): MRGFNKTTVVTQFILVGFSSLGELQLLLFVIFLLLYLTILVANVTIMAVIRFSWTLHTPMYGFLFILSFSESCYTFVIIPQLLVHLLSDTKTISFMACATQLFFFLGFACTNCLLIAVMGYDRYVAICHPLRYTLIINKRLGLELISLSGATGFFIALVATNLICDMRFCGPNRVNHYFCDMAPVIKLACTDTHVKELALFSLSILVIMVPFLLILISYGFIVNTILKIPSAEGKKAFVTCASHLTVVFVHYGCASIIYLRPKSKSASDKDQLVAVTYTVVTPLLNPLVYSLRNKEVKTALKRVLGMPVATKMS
# Summary of the method: as §1
# OR10X1 (Homo sapiens) = target: T4, OR10X1 (Homo sapiens) (UniProt Q8NGY0)
# T4 sequence (whole entry): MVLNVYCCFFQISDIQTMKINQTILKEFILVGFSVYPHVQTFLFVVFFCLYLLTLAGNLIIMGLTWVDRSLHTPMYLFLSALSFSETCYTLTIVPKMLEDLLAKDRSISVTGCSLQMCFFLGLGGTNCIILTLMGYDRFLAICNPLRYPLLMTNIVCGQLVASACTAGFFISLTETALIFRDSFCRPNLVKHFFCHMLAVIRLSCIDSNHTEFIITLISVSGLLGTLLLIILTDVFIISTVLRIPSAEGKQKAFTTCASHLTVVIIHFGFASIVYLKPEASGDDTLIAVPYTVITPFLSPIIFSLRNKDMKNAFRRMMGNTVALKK
# Summary of the method: as §1
# OR10Z1 (Homo sapiens) = target: T5, OR10Z1 (Homo sapiens) (UniProt Q8NGY1)
# T5 sequence (whole entry): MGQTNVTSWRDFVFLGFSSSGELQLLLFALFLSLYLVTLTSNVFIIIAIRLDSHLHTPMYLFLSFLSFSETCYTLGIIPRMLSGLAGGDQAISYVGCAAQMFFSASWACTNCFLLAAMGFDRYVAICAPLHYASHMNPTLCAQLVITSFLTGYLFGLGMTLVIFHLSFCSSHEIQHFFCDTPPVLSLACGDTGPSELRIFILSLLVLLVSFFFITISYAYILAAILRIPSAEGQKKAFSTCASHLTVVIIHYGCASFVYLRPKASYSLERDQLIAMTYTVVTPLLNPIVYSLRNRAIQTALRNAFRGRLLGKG
# Summary of the method: as §1
# OR11A1 (Homo sapiens) = target: T6, OR11A1 (Homo sapiens) (UniProt Q9GZK7)
# T6 sequence (whole entry): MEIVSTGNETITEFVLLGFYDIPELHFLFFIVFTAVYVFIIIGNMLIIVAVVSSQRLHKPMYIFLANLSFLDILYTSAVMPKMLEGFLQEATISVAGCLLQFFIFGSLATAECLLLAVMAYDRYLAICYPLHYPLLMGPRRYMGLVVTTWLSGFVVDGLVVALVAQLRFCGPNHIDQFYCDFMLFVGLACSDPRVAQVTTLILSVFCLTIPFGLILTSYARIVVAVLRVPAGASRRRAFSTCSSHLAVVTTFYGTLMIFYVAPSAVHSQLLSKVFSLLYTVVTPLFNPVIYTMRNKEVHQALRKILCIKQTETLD
# Summary of the method: as §1
# OR11H4 (Homo sapiens) = target: T7, OR11H4 (Homo sapiens) (UniProt Q8NGC9)
# T7 sequence (whole entry): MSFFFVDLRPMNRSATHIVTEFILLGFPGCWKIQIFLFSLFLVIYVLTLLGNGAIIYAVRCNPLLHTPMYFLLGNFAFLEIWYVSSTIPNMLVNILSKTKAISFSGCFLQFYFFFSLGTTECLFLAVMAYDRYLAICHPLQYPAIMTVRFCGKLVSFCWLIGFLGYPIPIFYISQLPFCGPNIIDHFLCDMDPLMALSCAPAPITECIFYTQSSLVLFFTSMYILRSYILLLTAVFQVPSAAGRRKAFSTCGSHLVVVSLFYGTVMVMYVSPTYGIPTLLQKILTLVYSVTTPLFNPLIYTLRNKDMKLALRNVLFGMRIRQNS
# Summary of the method: as §1
# OR11H6 (Homo sapiens) = target: T8, OR11H6 (Homo sapiens) (UniProt Q8NGC7)
# T8 sequence (whole entry): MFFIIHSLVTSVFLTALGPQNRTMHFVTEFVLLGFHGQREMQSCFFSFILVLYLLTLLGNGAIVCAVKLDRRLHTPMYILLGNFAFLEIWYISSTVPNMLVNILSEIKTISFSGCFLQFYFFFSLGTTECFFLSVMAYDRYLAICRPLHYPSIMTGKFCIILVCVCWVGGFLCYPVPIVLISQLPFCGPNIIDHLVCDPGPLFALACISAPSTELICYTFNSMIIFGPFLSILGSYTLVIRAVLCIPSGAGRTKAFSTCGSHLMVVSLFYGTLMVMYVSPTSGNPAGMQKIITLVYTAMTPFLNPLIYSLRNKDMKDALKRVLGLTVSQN
# Summary of the method: as §1
# OR12D2 (Homo sapiens) = target: T9, OR12D2 (Homo sapiens) (UniProt P58182)
# T9 sequence (whole entry): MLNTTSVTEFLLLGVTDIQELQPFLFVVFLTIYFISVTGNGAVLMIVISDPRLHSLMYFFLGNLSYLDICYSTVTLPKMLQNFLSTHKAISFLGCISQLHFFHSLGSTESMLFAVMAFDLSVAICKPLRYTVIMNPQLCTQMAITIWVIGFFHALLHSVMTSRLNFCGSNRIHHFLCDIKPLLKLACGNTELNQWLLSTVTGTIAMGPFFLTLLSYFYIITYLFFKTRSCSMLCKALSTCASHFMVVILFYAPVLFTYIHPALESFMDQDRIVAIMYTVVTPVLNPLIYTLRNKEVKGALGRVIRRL
# Summary of the method: as §1
# OR12D3 (Homo sapiens) = target: T10, OR12D3 (Homo sapiens) (UniProt Q9UGF7)
# T10 sequence (whole entry): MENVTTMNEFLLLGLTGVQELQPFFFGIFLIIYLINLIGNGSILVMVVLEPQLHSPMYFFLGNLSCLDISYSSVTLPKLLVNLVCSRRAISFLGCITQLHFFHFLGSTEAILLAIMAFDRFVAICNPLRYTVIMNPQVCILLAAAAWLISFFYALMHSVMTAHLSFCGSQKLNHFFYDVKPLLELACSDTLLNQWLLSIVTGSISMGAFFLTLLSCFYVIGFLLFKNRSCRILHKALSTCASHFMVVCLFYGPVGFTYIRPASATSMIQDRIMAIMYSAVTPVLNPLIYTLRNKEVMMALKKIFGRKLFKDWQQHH
# Summary of the method: as §1
# OR13A1 (Homo sapiens) = target: T11, OR13A1 (Homo sapiens) (UniProt Q8NGR1)
# T11 sequence (whole entry): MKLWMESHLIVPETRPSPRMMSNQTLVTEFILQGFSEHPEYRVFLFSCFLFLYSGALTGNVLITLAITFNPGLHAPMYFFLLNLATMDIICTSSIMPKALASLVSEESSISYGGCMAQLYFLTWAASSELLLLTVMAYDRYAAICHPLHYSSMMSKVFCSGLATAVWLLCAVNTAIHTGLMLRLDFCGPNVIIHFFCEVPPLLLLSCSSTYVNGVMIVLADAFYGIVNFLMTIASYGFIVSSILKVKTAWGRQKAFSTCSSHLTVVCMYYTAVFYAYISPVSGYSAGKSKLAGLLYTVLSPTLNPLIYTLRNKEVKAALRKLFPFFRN
# Summary of the method: as §1
# OR10S1 (Homo sapiens) = target: T12, OR10S1 (Homo sapiens) (UniProt Q8NGN2)
# T12 sequence (whole entry): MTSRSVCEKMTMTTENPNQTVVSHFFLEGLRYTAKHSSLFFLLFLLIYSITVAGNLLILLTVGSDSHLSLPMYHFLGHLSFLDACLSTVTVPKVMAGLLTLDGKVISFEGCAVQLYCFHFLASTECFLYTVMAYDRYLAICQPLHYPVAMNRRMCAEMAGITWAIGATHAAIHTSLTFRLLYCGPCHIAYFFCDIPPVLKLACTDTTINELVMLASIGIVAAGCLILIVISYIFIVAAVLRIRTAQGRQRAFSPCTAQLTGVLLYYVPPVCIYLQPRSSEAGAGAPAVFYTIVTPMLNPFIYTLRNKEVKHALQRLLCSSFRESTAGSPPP
# Summary of the method: as §1
# OR11H12 (Homo sapiens) = OR11H12 (Homo sapiens) (UniProt B2RN74)
# Summary of the method: as §1
Structure (SMILES),odorant receptor agonist call (OR10K1 (Homo sapiens)),odorant receptor agonist call (OR10K2 (Homo sapiens)),odorant receptor agonist call (OR10T2 (Homo sapiens)),odorant receptor agonist call (OR10X1 (Homo sapiens)),odorant receptor agonist call (OR10Z1 (Homo sapiens)),odorant receptor agonist call (OR11A1 (Homo sapiens)),odorant receptor agonist call (OR11H4 (Homo sapiens)),odorant receptor agonist call (OR11H6 (Homo sapiens)),odorant receptor agonist call (OR12D2 (Homo sapiens)),odorant receptor agonist call (OR12D3 (Homo sapiens)),odorant receptor agonist call (OR13A1 (Homo sapiens)),odorant receptor agonist call (OR10S1 (Homo sapiens)),odorant receptor agonist call (OR11H12 (Homo sapiens))
C=CCSCC=C,inactive,inactive,inactive,inactive,inactive,inactive,inactive,inactive,inactive,inactive,inactive,,
CCCCCOC(C)=O,active,inactive,inactive,inactive,inactive,inactive,inactive,inactive,inactive,inactive,inactive,,
C=CCc1ccc(O)c(OC)c1,,,,,,,,,,,,inactive,
CC(C)(O)CCCC1=CCC(C=O)CC1 (stereo not given),,,,,,,,,,,,inactive,
COc1cc(C)ccc1O,inactive,inactive,inactive,inactive,inactive,inactive,inactive,inactive,inactive,inactive,inactive,,
CCCCCC(C)=O,inactive,inactive,inactive,inactive,inactive,inactive,inactive,inactive,inactive,inactive,inactive,,
C=CCc1ccc(OC(C)=O)c(OC)c1,inactive,inactive,inactive,inactive,inactive,inactive,inactive,inactive,inactive,inactive,inactive,,
CC1COCc2cc3c(cc21)C(C)(C)C(C)C3(C)C (stereo not given),inactive,active,inactive,active,inactive,active,active,active,active,active,active,,
CC12CCC(C1)C(C)(C)C2=O (stereo not given),inactive,inactive,inactive,inactive,inactive,inactive,inactive,inactive,inactive,inactive,inactive,,
O=CCc1ccccc1,inactive,inactive,inactive,inactive,inactive,inactive,inactive,inactive,inactive,inactive,inactive,,
CC1=CCC(C(C)(C)O)CC1 (stereo not given),inactive,inactive,inactive,inactive,inactive,inactive,inactive,inactive,inactive,inactive,inactive,,
CC(C)CCC(=O)O,inactive,inactive,inactive,inactive,inactive,inactive,active,inactive,inactive,inactive,inactive,,
CC(=O)C(C)=O,inactive,inactive,inactive,inactive,inactive,inactive,inactive,inactive,inactive,inactive,inactive,,
CCC1(O)C2(C)CCC(C2)C1(C)C (stereo not given),inactive,inactive,inactive,inactive,inactive,active,inactive,inactive,inactive,inactive,inactive,,
O=C1CCCCCCCCCCCCCCO1,inactive,inactive,inactive,inactive,inactive,inactive,inactive,inactive,inactive,inactive,inactive,,
CC(C)(C)c1ccc(CCC=O)cc1,inactive,inactive,inactive,inactive,inactive,inactive,inactive,inactive,inactive,inactive,inactive,,
CC(C)C=O,inactive,inactive,inactive,inactive,inactive,inactive,inactive,inactive,inactive,inactive,inactive,,
C=C(C)C1CC=C(C)C(=O)C1 (stereo not given),,,,,,,,,,,,inactive,active
CC(=O)OC1CC2CCC1(C)C2(C)C (stereo not given),inactive,inactive,inactive,inactive,inactive,inactive,inactive,inactive,inactive,inactive,inactive,,
c1ccc(Oc2ccccc2)cc1,inactive,inactive,inactive,inactive,inactive,inactive,inactive,inactive,inactive,inactive,inactive,,
CC1=NC(C)SC1C (stereo not given),inactive,inactive,inactive,inactive,inactive,inactive,inactive,inactive,inactive,inactive,inactive,,
CCCCCCCCOC(C)=O,inactive,inactive,inactive,inactive,inactive,inactive,inactive,inactive,inactive,inactive,inactive,,
C=CCc1ccc(OC)c(OC)c1,inactive,inactive,inactive,inactive,inactive,inactive,inactive,inactive,inactive,inactive,inactive,,
CC(=O)OC(C)(C)C1CC=C(C)CC1 (stereo not given),inactive,inactive,inactive,inactive,inactive,inactive,inactive,inactive,inactive,inactive,inactive,,
CC=Cc1ccc(O)c(OC)c1,inactive,inactive,inactive,inactive,inactive,inactive,inactive,inactive,inactive,inactive,inactive,,
CCCCCCCC=CC=O,active,inactive,active,inactive,active,inactive,inactive,inactive,inactive,inactive,inactive,,
CCCCCCCCC=O,,,,,,,,,,,,active,
CC12C=CCC1C1CCC3=CC(=O)CCC3(C)C1CC2 (stereo not given),inactive,inactive,inactive,inactive,inactive,active,inactive,inactive,inactive,inactive,inactive,,
O=C1CCCCC1,inactive,inactive,inactive,inactive,inactive,inactive,inactive,inactive,active,inactive,inactive,,

# Quoted from the listing:
# Entry of CC1COCc2cc3c(cc21)C(C)(C)C(C)C3(C)C (stereo not given) under odorant receptor agonist call (OR11H4 (Homo sapiens)): active
# Entry of CCCCCCCCC=O under odorant receptor agonist call (OR10S1 (Homo sapiens)): active
